Reference: the supplement of paper PMC11348887
Structures can show the parent of a compound that is named as a salt. This is one part of the list. Small differences around the control level are noise.

Key:
Conditions in all cases: 5 µM; treatment: days 7-14 after plating, readout day 21
[1] = system: hPSC-derived cortical neurons (WA09); assay: nucleus area z-score vs screen plate; higher = larger nuclei (more mature)
[2] = system: hPSC-derived cortical neurons (WA09); assay: total neurite length per nucleus (MAP2) z-score; higher = more neurite growth
[3] = system: hPSC-derived cortical neurons (WA09); assay: nucleus roundness z-score vs screen plate; higher = rounder nuclei (more mature)
[4] = system: hPSC-derived cortical neurons (WA09); assay: KCl-induced FOS+/EGR-1+ double-positive nuclei fraction z-score (KCl minus unstimulated); higher = stronger activity-induced IEG response

| SMILES | nucleus area z-score [1] | total neurite length per nucleus (z-score) [2] | nucleus roundness z-score [3] | KCl-induced FOS+/EGR-1+ double-positive nuclei fraction z-score [4] |
| --- | --- | --- | --- | --- |
| CC(C)Oc1ccc(-c2nc(-c3cccc4c3CC[C@@H]4NCCO)no2)cc1C#N [Ozanimod (RPC1063)] | 0.943 | 0.547 | -0.631 | 0.636 |
| COc1ccc(NS(=O)(=O)c2ccc(N)cc2)nn1 [Sulfamethoxypyridazine] | 0.245 | 0.852 | 0.877 | 0.715 |
| O=C(Nc1cccc2c(=O)cc(-c3nnn[nH]3)oc12)c1ccc(OCCCCc2ccccc2)cc1 [Pranlukast] | 0.331 | 1.09 | 1.42 | 4.23 |
| CC(C(=O)O)c1cccc(Oc2ccccc2)c1 (stereo not drawn) [Fenoprofen Calcium] | 1.3 | -0.36 | 0.0123 | 4.93 |
| Nc1nc2c(ncn2[C@@H]2O[C@H](CO)[C@@H](O)[C@H]2O)c(=O)[nH]1 [Guanosine] | 0.453 | 0.994 | 0.369 | 1.67 |
| N[C@@H](CCC(=O)N[C@@H](CS)C(=O)NCC(=O)O)C(=O)O [Glutathione] | 1.91 | 0.483 | 1.15 | 2.2 |
| O=C(Nc1cccnc1)N1CCC(Cc2cccc(Oc3ccc(C(F)(F)F)cn3)c2)CC1 | 1.25 | -0.311 | -0.312 | 0.146 |
| O=c1[nH]c(=O)n([C@H]2C[C@H](O)[C@@H](CO)O2)cc1C(F)(F)F [Trifluridine] | 0.0359 | 0.485 | 0.23 | -0.712 |
| CC(C)[C@H]1C(=O)N[C@@H](CCCNC(=N)N)C(=O)NCC(=O)N[C@@H](CC(=O)O)C(=O)N[C@H](Cc2ccccc2)C(=O)N1C [Cilengitide] | 1.26 | 0.0356 | 1.01 | -0.333 |
| NC1(c2ccc(-c3nc4ccn5c(=O)[nH]nc5c4cc3-c3ccccc3)cc2)CCC1 | -2.16 | -1.08 | -1.07 | -0.197 |
| O=C(O)c1cccnc1Nc1cccc(C(F)(F)F)c1 [Niflumic acid] | 0.0526 | -0.15 | 0.34 | -0.333 |
| C/C(=C\c1ccc(C(=O)O)cc1)c1ccc2c(c1)C(C)(C)CCC2(C)C [TTNPB (Arotinoid Acid)] | -0.881 | -0.393 | 0.599 | 1.52 |
| O=C(NC1CCOCC1)c1ccc(-c2cc(-c3c[nH]nc3-c3ccccn3)ccn2)cc1 | 1.09 | -3.41 | -7.61 | -0.291 |
| CC[C@]1(O)C[C@@H]2CN(CCc3c([nH]c4ccccc34)[C@@](C(=O)OC)(c3cc4c(cc3OC)N(C)[C@H]3[C@@](O)(C(=O)OC)[C@H](OC(C)=O)[C@]5(CC)C=CCN6CC[C@]43[C@@H]65)C2)C1 [Vinblastine sulfate] | -18.2 | -6.23 | -5.44 | -0.721 |
| CCCC(CCC)C(=O)O [Divalproex Sodium] | -0.661 | 1.17 | 0.256 | 0.922 |
| O=c1ccc2ccc(OCCCCN3CCN(c4cccc5sccc45)CC3)cc2[nH]1 [Brexpiprazole] | 0.515 | -0.0637 | -0.678 | 0.209 |
| Oc1cccc(-c2nc(N3CCOCC3)c3oc4ncccc4c3n2)c1 | -0.604 | 0.293 | 0.399 | 0.221 |
| COc1ccc(-c2coc3cc(O)cc(O)c3c2=O)cc1 [Biochanin A] | 0.789 | -0.0651 | -1.77 | -0.0126 |
| CC(C)CN(C[C@@H](O)[C@H](Cc1ccccc1)NC(=O)O[C@H]1CCOC1)S(=O)(=O)c1ccc(N)cc1 [Amprenavir] | -0.108 | 1.3 | 0.776 | 1.64 |
| CCCN(CCC)C(=O)C1=Cc2ccc(-c3ccc(C(=O)N4CCCC4)cc3)cc2N=C(N)C1 [Motolimod (VTX-2337)] | -0.309 | 0.146 | -0.15 | -0.253 |
| NC(=O)C(c1ccccc1)(c1ccccc1)[C@@H]1CCN(CCc2ccc3c(c2)CCO3)C1 [Darifenacin HBr] | 0.00139 | -1.8 | -1.92 | -0.234 |
| Oc1c2ccccc2c2c3c(cccc13)N=N2 | -1.08 | 1.91 | -0.545 | -2.57 |
| Nc1nc2c(cnn2CCc2ccccc2)c2nc(-c3ccco3)nn12 | 2.04 | 0.0646 | -1.22 | 0.303 |
| O=C(Nc1ccccc1)N1CCN(c2nc(-c3ccccc3)ns2)CC1 | 0.386 | 0.811 | 0.998 | 0.674 |
| O=c1[nH]cnc2[nH]ncc12 [Allopurinol Sodium] | 1.97 | -1.28 | -1.05 | 1.8 |
| CN(C)CCC[C@@]1(c2ccc(F)cc2)OCc2cc(C#N)ccc21 [Escitalopram Oxalate] | 0.375 | -0.217 | -0.0333 | 2.16 |

Reformatted: results already given
SMILES,nucleus area z-score [1],total neurite length per nucleus (z-score) [2],nucleus roundness z-score [3],KCl-induced FOS+/EGR-1+ double-positive nuclei fraction z-score [4]
CC(C)CN(C[C@@H](O)[C@H](Cc1ccccc1)NC(=O)O[C@H]1CCOC1)S(=O)(=O)c1ccc(N)cc1 [Amprenavir],-0.108,1.3,0.776,1.64
CCCN(CCC)C(=O)C1=Cc2ccc(-c3ccc(C(=O)N4CCCC4)cc3)cc2N=C(N)C1 [Motolimod (VTX-2337)],-0.309,0.146,-0.15,-0.253
NC(=O)C(c1ccccc1)(c1ccccc1)[C@@H]1CCN(CCc2ccc3c(c2)CCO3)C1 [Darifenacin HBr],0.00139,-1.8,-1.92,-0.234
Oc1c2ccccc2c2c3c(cccc13)N=N2,-1.08,1.91,-0.545,-2.57

Next structures:

| SMILES | nucleus area z-score [1] | total neurite length per nucleus (z-score) [2] | nucleus roundness z-score [3] | KCl-induced FOS+/EGR-1+ double-positive nuclei fraction z-score [4] |
| --- | --- | --- | --- | --- |
| CC[C@H](Nc1ncnc2[nH]cnc12)c1nc2cccc(F)c2c(=O)n1-c1ccccc1 [CAL-101 (Idelalisib_ GS-1101)] | -0.42 | 0.25 | 0.449 | 1.41 |
| Clc1cccc(-c2nnnn2Cc2cccnc2)c1Cl | -0.244 | -0.19 | 0.0682 | 0.803 |
| Nc1ncnc2c1c(-c1cnc3[nH]ccc3c1)nn2C1CCCC1 | -5.23 | -1.48 | -3.63 | -0.789 |
| Cc1c(-c2cnccn2)ssc1=S [Oltipraz] | 0.481 | 0.569 | 0.647 | 0.252 |
| Cc1cccc(Nc2ccncc2S(=O)(=O)NC(=O)NC(C)C)c1 [Torsemide] | -0.281 | -0.502 | -0.415 | 0.928 |
| CNS(=O)(=O)CCc1ccc2[nH]cc(C3CCN(C)CC3)c2c1 [Naratriptan] | 1.32 | -0.858 | -1.23 | -0.891 |
| CN(C)CCCn1cc(C2=C(c3c[nH]c4ccccc34)C(=O)NC2=O)c2ccccc21 | -2.51 | -1.57 | -1.7 | -0.63 |
| Cc1cncc(CN2CCC(=C3c4ccc(Cl)cc4CCc4cccnc43)CC2)c1 [Rupatadine Fumarate] | 0.611 | -0.355 | 0.276 | -0.0555 |
| O=C(NCC1(c2nc(-c3ccccc3)cs2)CCOCC1)c1cccc(-c2noc(C(F)(F)F)n2)c1 | 0.999 | 0.607 | -0.563 | 0.917 |
| CCN(CC)CCNC(C(=O)OCCC(C)C)c1ccccc1 (stereo not drawn) [Camylofin Chlorhydrate] | 2.44 | -0.317 | -1.12 | 0.564 |
| CC(C)c1c(C(=O)Nc2ccccc2)c(-c2ccccc2)c(-c2ccc(F)cc2)n1CC[C@@H](O)C[C@@H](O)CC(=O)O [Atorvastatin Calcium] | -4.02 | -0.379 | -3.1 | -1.6 |
| CO[C@H]1/C=C\C=C(/C)C(=O)NC2=CC(=O)C(NCCN(C)C)=C(C[C@@H](C)C[C@H](OC)[C@H](O)[C@@H](C)/C=C(\C)[C@@H]1OC(N)=O)C2=O [17-DMAG (Alvespimycin) HCl] | -9.42 | -3.67 | -3.36 | -1.06 |
| Cc1cccc(CC(=O)N2CCc3c2ccc(-c2cn(C)c4ncnc(N)c24)c3F)n1 | -0.466 | 0.699 | -0.0752 | -0.882 |
| CCCCC1=NC2(CCCC2)C(=O)N1Cc1ccc(-c2ccccc2-c2nnn[nH]2)cc1 [Irbesartan] | -0.3 | 0.506 | -0.34 | 0.668 |
| CN(C)C(=O)c1cc2cnc(Nc3ccc(N4CCNCC4)cn3)nc2n1C1CCCC1 | 0.482 | 0.752 | 0.644 | -0.355 |
| COC(=O)Nc1nc2cc(C(=O)c3ccc(F)cc3)ccc2[nH]1 [Flubendazole] | 0.69 | -1.15 | -0.985 | -0.464 |
| Cn1c(=O)c2nc[nH]c2n(C)c1=O [Theophylline] | -0.0288 | 0.176 | -0.109 | 0.0371 |
| COC(=O)[C@H](CCSC)NC(=O)c1ccc(NC[C@@H](N)CS)cc1-c1ccccc1 | -0.519 | 0.103 | 0.966 | 2.98 |
| O=C(/C=C/N1C[C@H]2C[C@@H]1CN2c1ccccn1)c1ccccc1O | 1.41 | 1.94 | 0.6 | 1.36 |
| CN[C@@H]1[C@@H](O)[C@@H](O[C@@H]2[C@@H](O)[C@H](O[C@H]3O[C@H](CN)[C@@H](O)[C@H](O)[C@H]3O)[C@@H](N)C[C@H]2NC(=O)[C@@H](O)CN)OC[C@]1(C)O [Isepamicin Sulphate] | 1.51 | -1.5 | -0.965 | 0.617 |
| CC(C)OC(=O)[C@H](C)N[P@](=O)(OC[C@H]1O[C@@H](n2ccc(=O)[nH]c2=O)[C@](C)(F)[C@@H]1O)Oc1ccccc1 [Sofosbuvir (PSI-7977_ GS-7977)] | 1.25 | -0.71 | 0.443 | 2.63 |
| COc1ccccc1OCC(O)CN1CCN(CC(=O)Nc2c(C)cccc2C)CC1 (stereo not drawn) [Ranolazine 2HCl] | 0.956 | -1.08 | 0.086 | -0.206 |
| COC(=O)C1=C(C)NC(C)=C([N+](=O)[O-])C1c1ccccc1C(F)(F)F (stereo not drawn) | 4.74 | 0.192 | 0.0703 | 1.97 |
| C/C=C(/C)C(=O)O[C@H]1[C@H](OC(C)=O)[C@@]2(CO)C(CC1(C)C)C1=CCC3[C@@]4(C)CCC(O[C@@H]5O[C@H](C(=O)O)[C@@H](O[C@@H]6O[C@H](CO)[C@@H](O)[C@H](O)[C@H]6O)[C@H](O)[C@H]5O[C@@H]5O[C@H](CO)[C@@H](O)[C@H](O)[C@H]5O)[C@](C)(CO)C4CC[C@@]3(C)[C@]1(C)C[C@H]2O.C/C=C(\C)C(=O)O[C@H]1[C@H](OC(C)=O)[C@@]2(CO)C(CC1(C)C)C1=CCC3[C@@]4(C)CCC(O[C@@H]5O[C@H](C(=O)O)[C@@H](O[C@@H]6O[C@H](CO)[C@@H](O)[C@H](O)[C@H]6O)[C@H](O)[C@H]5O[C@@H]5O[C@H](CO)[C@@H](O)[C@H](O)[C@H]5O)[C@](C)(CO)C4CC[C@@]3(C)[C@]1(C)C[C@H]2O (stereo partly drawn) [Escin] | -0.21 | -0.319 | -0.228 | 0.478 |
| C[N+]1(C)CCC(=C(c2ccccc2)c2ccccc2)CC1 [Diphemanil Methylsulfate] | -0.232 | 0.00267 | 0.376 | 0.549 |
| CC1Cc2ccccc2N1NC(=O)c1ccc(Cl)c(S(N)(=O)=O)c1 (stereo not drawn) [Indapamide] | -0.62 | 0.576 | 0.22 | 0.281 |
